As usually defined, the AC50 is the midpoint of the concentration-response curve, whichever way the signal moves.

The list shows a part of the results. These are further read-outs of the screen, such as a control signal, another cell line or another target. No call is given for them. Compounds called inactive in the main read-out are mostly missing here. Words in brackets tell the shape of the fitted curve; partial curves, single points and poor fits give uncertain potencies.

A short description of the experiment: Cell signaling CRE-BLA (Fsk stim). As to conditions: CHO CRE-bla reporter (cAMP response element driving beta-lactamase), forskolin EC10, beta-lactamase ratio; measured here: 460 nm blue channel. An outline of the steps: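 Forskolin analogue NKH 477 at EC10 stimulated CRE-driven beta-lactamase in CHO cells alongside compound dilution series. Beta-lactamase was measured with CCF4, excitation 405 nm, emission ratio 460/530 nm.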
For the compound `O=C(CN1CCN(c2ccccn2)CC1)NCCc1ccccc1`, the AC50 is 5.01 µM [falling, single point].

In the case of `CC(C)CCn1c(SCCc2ccccc2)nc2c1c(=O)[nH]c(=O)n2C`, the concentration at half-maximal activity (AC50) was 5.01 µM [rising, partial curve].

Regarding `Cc1nc2ccccc2c2nc3ccccc3n12`, the AC50 is 5.01 µM [rising, partial curve].

For the compound `Cc1cccc(CNc2ncncc2-c2ccccc2Cl)c1`, the half-maximal activity concentration (AC50) was 15.8 µM [rising, single point].

For `Cc1noc(C)c1-c1nc(NCc2cccnc2)c2ccccc2n1`, the AC50 is 12.6 µM [rising, partial curve].

`CCNc1ccc2c(Cl)cc(=O)oc2c1`: the AC50 was 10 µM [rising, partial curve].

As to `CC(C(=O)Oc1ccc2c(c1)OCO2)N1C(=O)c2ccccc2C1=O` (configuration not stated), the AC50 was 0.0251 µM [falling, full curve, poor fit].

Regarding `COc1cc2oc(=O)c(Br)c(C)c2c(OC)c1OC`, the concentration at half-maximal activity (AC50) was 10 µM [rising, partial curve].

`Oc1c(C(c2ccccc2)N2CCCCC2)sc2ncnn12` (configuration not stated): the AC50 is 7.94 µM [falling, partial curve].

On to `COC(=O)c1ccccc1NC(=O)CC#N`, for which the AC50 was 0.158 µM [falling, partial curve].

Regarding `CCCCn1c(=O)c2ccccc2c2ccccc2c1=O`, the AC50 is 12.6 µM [rising, single point].

For `Cn1c(=O)c2c(SCC(=O)c3ccccc3)nc(C3CC3)nc2n(C)c1=O`, the AC50 was 2.51 µM [rising, full curve, poor fit].

As to `COc1ccc(Cn2c(=O)n(Cc3ccco3)c(=N)c3c4c(sc32)COC(C)(C)C4)cc1`, the concentration at half-maximal activity (AC50) is 12.6 µM [rising, partial curve].

With `CC(=O)Oc1cc2oc(=O)cc(C)c2cc1OC(C)=O`, the AC50 was 12.6 µM [rising, partial curve].

Consider `O=C(NCCC1=CCCCC1)c1ccc2c(=O)n3c(nc2c1)CCCCC3`, for which the AC50 is 10 µM [rising, partial curve].

As to `CCCCCSc1nnc(-c2cc(Br)ccc2N)c(=O)[nH]1`, the half-maximal activity concentration (AC50) is 1 µM [falling, full curve].

As for `CC(C)OC(=O)CN1C(=O)C(C)(C)Oc2ccc(C(=O)NC(C)(C)C)cc21`, the AC50 is 25.1 µM [falling, single point].

On to `COC(=O)[C@@]1(Cc2ccc(OC)cc2)[C@H]2c3cc(C(=O)N(C)C)n(Cc4ccc(Cl)c(C(F)(F)F)c4)c3C[C@H]2CN1C(=O)c1ccccc1`, for which the AC50 is 0.631 µM [rising, full curve, poor fit].

Turning to `COc1cccc(-c2nc(CS(=O)(=O)CC(=O)Nc3cccc(C)c3C)c(C)o2)c1`, the AC50 was 10 µM [rising, single point].

As to `COc1ccc(CN(CCN2CCOCC2)C(=O)c2c(F)cccc2F)cc1OC`, the AC50 is 3.16 µM [falling, single point].

Consider `CCn1ncc(Cl)c1C(=O)Nc1cc(Cl)ccc1Cl`, for which the AC50 is 15.8 µM [rising, single point].

As for `CO[C@@H]1CC[C@@]2(C)[C@@H](CC[C@@]3(C)[C@H]2CC=C2[C@H]4CC(C)(C)[C@H](O)[C@@H](OC(C)=O)[C@]4(CO)[C@H](O)C[C@]23C)[C@@]1(C)CO` (tested in a mixture with another compound), the half-maximal activity concentration (AC50) is 12.6 µM [falling, single point].

As to `Cc1ccc(-c2nnc3sc(CCc4ccccc4)nn23)cc1`, the half-maximal activity concentration (AC50) is 10 µM [rising, single point].

On to `CCCCCCn1c(CN2CCCCC2CC)nc2c1c(=O)n(C)c(=O)n2C` (configuration not stated), for which the concentration at half-maximal activity (AC50) is 7.94 µM [rising, partial curve].

In the case of `COC(=O)Cn1cnc2sc(C)c(S(=O)(=O)N3CCN(c4ccccc4OC)CC3)c2c1=O`, the AC50 is 0.316 µM [rising, full curve, poor fit].

`Cc1cc2cc3c(cc2nc1SCC(=O)N1CCN(C(=O)c2ccco2)CC1)OCO3`: the AC50 was 25.1 µM [rising, single point].

Consider `Cc1csc(NC(=O)C2CCCO2)n1` (configuration not stated), for which the AC50 was 0.00631 µM [falling, full curve].

`COc1ccc(-c2nc3cnc(Nc4cccc(OC)c4)nc3n(Cc3cccs3)c2=O)cc1`: the concentration at half-maximal activity (AC50) is 1 µM [rising, full curve].

As for `CNC(=O)N(C1=NCC(C)(C)S1)c1ccc(F)c(Cl)c1`, the AC50 was 1 µM [rising, partial curve].

For `Cc1nn(-c2ccccc2)c2c1C1(C(=O)N(C)c3ccccc31)N(c1ccccc1)C(=O)N2` (configuration not stated), the AC50 is 15.8 µM [falling, partial curve].

For the compound `c1ccc2c(c1)nnn1c3ccccc3nc21`, the AC50 is 12.6 µM [rising, partial curve].

Take `CCOc1cc(S(=O)(=O)N(CC)CC)ccc1Br`: the half-maximal activity concentration (AC50) was 6.31 µM [rising, partial curve].

Take `COc1ccc(OC)c(C2=NOC(C(=O)Nc3cc(C)nn3-c3ccccc3)C2)c1` (configuration not stated): the half-maximal activity concentration (AC50) is 5.01 µM [rising, partial curve].

`Cc1cccc(-c2nsc(SCC(=O)N3CCCC3)n2)c1`: the half-maximal activity concentration (AC50) was 0.316 µM [falling, partial curve, poor fit].

As for `Cc1nc(SCN2C(=O)c3ccccc3C2=O)n[nH]1`, the AC50 is 1 µM [falling, partial curve].

Consider `Clc1ccccc1-c1nccc(NCc2cccs2)n1`, for which the AC50 is 3.16 µM [rising, single point].

Turning to `Fc1cccc(CSc2ncnc3c2ncn3[C@H]2CCCS2)c1`, the AC50 was 3.98 µM [rising, single point].

With `CCOc1ccc2nc(NC(=O)C(CC)Sc3nc(C)cc(=O)[nH]3)sc2c1` (configuration not stated), the concentration at half-maximal activity (AC50) is 15.8 µM [rising, single point].

As for `Cn1c(=O)cc(OCCCC(=O)N2CCN(Cc3ccc4c(c3)OCO4)CC2)c2ccccc21`, the concentration at half-maximal activity (AC50) was 12.6 µM [rising, single point].

Consider `Cn1c(=O)c(-c2cccs2)nc2cnc(N3CCNCC3)nc21`, for which the AC50 is 10 µM [rising, partial curve].

With `CC1=C(C(=O)Nc2ccccc2)C(c2cccs2)C(C#N)=C(SCC#N)N1` (configuration not stated), the AC50 was 20 µM [falling, partial curve].

As for `CCOc1cc2c3c(c1)C1(C(=O)N3C(C)(C)C=C2C)C(C#N)=C(N)Oc2cc(O)ccc21` (configuration not stated), the AC50 was 25.1 µM [rising, single point].

The values above are taken from PubChem BioAssay AID662 (National Center for Advancing Translational Sciences (NCATS), 2007).
